Measured values: PMC4603794
No constants are given. Whether binding was seen depends on the method and setting. In cells and extracts the contact can be indirect. Some entries that bind do so weakly or less than the wild type.

Protein sequences, listed by entry. Tags and fused reporters are not part of them.
UniProt Q9LDI3: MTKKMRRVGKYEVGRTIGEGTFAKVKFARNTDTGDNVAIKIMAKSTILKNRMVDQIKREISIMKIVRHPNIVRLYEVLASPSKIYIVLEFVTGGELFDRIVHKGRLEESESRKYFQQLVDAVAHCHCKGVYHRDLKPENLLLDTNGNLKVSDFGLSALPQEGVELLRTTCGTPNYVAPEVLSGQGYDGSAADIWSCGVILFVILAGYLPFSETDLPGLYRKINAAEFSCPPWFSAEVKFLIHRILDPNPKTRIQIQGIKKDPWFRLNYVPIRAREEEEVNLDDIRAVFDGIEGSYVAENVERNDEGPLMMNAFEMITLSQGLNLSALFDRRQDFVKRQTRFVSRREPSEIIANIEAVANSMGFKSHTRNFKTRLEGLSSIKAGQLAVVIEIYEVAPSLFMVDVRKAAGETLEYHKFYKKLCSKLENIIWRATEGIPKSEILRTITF
UniProt O81445: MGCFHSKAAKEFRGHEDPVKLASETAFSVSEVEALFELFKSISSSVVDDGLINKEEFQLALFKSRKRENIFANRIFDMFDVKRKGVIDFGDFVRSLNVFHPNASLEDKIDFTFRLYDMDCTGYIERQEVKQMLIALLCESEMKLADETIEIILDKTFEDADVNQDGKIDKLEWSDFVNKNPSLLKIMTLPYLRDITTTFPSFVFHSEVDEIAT

Molecular target: CIPK (CBL interacting protein kinase) 24 (UniProt Q9LDI3)
Assay: split reporter; BiFC with split SCFP in Nicotiana benthamiana leaf epidermal cells after agroinfiltration; CFP fluorescence by confocal microscopy 2 to 3 days after injection

calcineurin B-like protein (CBL) 1 (from UniProt O81445 1-213)
binding: binds
